Screen size: about 320,000 compounds; about 22,000 (6.9%) were called active. Inconclusive means that the source gave no clear call. Such entries were picked first, then a sample of the others. Calls follow the shape of the dose curve; as a rule, active = well fitted inhibition curve with a large enough effect; inconclusive = small, poorly fitted or top-dose-only effect, or another doubt; inactive = no such curve, though single readings can be large or run the other way. Where the call is inconclusive, the potency comes from a doubtful curve fit.
Test: Primary qHTS for delayed death inhibitors of the malarial parasite plastid, 96 hour incubation
Conditions: P. falciparum luciferase reporter growth; series mostly up to 28.7 µM
Procedure, shortened: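 Erythrocytes infected with luciferase-expressing P. falciparum were dispensed at 2% hematocrit and 0.05% parasitemia (final), then incubated with compounds 96 hours at 37 C in 5% CO2. Luminescence after detection reagent addition reported growth.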
Potency is read from the fitted curve at half-maximal effect.

Row | SMILES | Potency
1 | Cc1cccc(-c2cccc(NC(=O)C3CCCN(C(=O)c4cccnc4)C3)c2)c1 (configuration not stated) | inconclusive: 18.5 µM [inhibitor, single point]
2 | O=C(NC12CC3CC(CC(C3)C1)C2)c1ccc(-c2cccc(Cl)c2)o1 | inconclusive: 14.7 µM [inhibitor, single point]
3 | COC(=O)c1ccc(C(=O)NC(=S)Nc2ccc3nc(SC)sc3c2)cc1 | inactive
4 | Cc1cccc(/C(N)=N/OC(=O)c2ccncc2)c1 | inconclusive: 18.5 µM [inhibitor, partial curve, poor fit]
5 | Cc1ccc(S(=O)(=O)NC(=O)Nc2nc(-c3ccc(F)c(F)c3)cs2)cc1 | inactive
6 | COc1cc(-c2nnc(SCC(=O)O)n2-c2ccccc2)cc(OC)c1OC | inconclusive: 18.5 µM [inhibitor, single point]
7 | Cc1ccc(C)c(-c2cc(C(=O)Nc3cccnc3)c3ccccc3n2)c1 | active: 2.08 µM
8 | Cc1cccc(-n2c(SCC(N)=O)nc3c(c2=O)C2(CCCC2)Cc2ccccc2-3)c1 | inactive
9 | CCc1ccccc1NC(=S)N1N=CCC1c1ccccc1 (configuration not stated) | inactive
10 | CC1Cc2ccccc2N1C(=O)COC(=O)c1c2c(nc3ccccc13)CCCCC2 (configuration not stated) | active: 13.1 µM
11 | CCc1ccc(NC(=O)C(C)Nc2ccc(S(=O)(=O)NC(C)=O)cc2)cc1 (configuration not stated) | inconclusive: 13.1 µM [inhibitor, single point]
12 | Cc1cc(C)c2c(CN3CCN(Cc4ccc5c(c4)OCO5)CC3)cc(=O)oc2c1 | inconclusive: 7.38 µM [inhibitor, partial curve]
13 | COc1ccccc1NC(=O)Nc1nc2ccc(S(N)(=O)=O)cc2s1 | inactive
14 | O=C(c1cccc(S(=O)(=O)NCc2ccc3c(c2)OCO3)c1)N1CCCC1 | inactive
15 | O=[N+]([O-])c1cc(-c2ccc([As](=O)(O)O)cc2)ccc1[As](=O)(O)O | inconclusive: 3.7 µM [inhibitor, single point]
16 | CN(Cc1ccccc1)S(=O)(=O)c1ccc(Cl)c(C(=O)NCc2ccc3c(c2)OCO3)c1 | inactive
17 | CN(CC(=O)Nc1ccc(F)c(F)c1F)C(=O)c1ccc(-n2cncn2)c([N+](=O)[O-])c1 | inactive
18 | Cc1ccc(C)c(NC(=S)Nc2cccc3cnccc23)c1 | active: 9.28 µM
19 | COc1ccc(CNC(=O)CN(C(=O)c2csnn2)c2ccc3c(c2)OCCO3)cc1 | inactive
20 | COc1ccc(S(=O)(=O)NCc2ccc(C(=O)O)cc2)cc1 | inconclusive: 9.28 µM [inhibitor, partial curve]
21 | CCN(CC)CCN(C(=O)c1ccc2ccccc2c1)c1nc2ccc(OC)cc2s1 | inactive
22 | CCOC(=O)c1nnn(-c2ccc([N+](=O)[O-])cc2)c1C | inconclusive: 2.94 µM [inhibitor, full curve, poor fit]
23 | CC1=C(C(=O)OC(C)C)C(c2cncc(-c3ccc(F)cc3)c2)C(C#N)=C(N)O1 (configuration not stated) | inconclusive: 18.5 µM [inhibitor, single point]
24 | CCN1CCc2c(sc(NC(=O)C3COc4ccccc4O3)c2C(N)=O)C1 (configuration not stated) | inactive

Reprinted at random: 2 compounds from above.
Row | SMILES | Potency
16 | CN(Cc1ccccc1)S(=O)(=O)c1ccc(Cl)c(C(=O)NCc2ccc3c(c2)OCO3)c1 | inactive
13 | COc1ccccc1NC(=O)Nc1nc2ccc(S(N)(=O)=O)cc2s1 | inactive

Two of these compounds, set out differently.
Cc1cccc(-c2cccc(NC(=O)C3CCCN(C(=O)c4cccnc4)C3)c2)c1 (configuration not stated)
  Potency: inconclusive: 18.5 µM [inhibitor, single point]
CCc1ccc(NC(=O)C(C)Nc2ccc(S(=O)(=O)NC(C)=O)cc2)cc1 (configuration not stated)
  Potency: inconclusive: 13.1 µM [inhibitor, single point]

Later entries:

Row | SMILES | Potency
25 | CC(=O)N(C)c1ccc(NC(=O)Nc2ccc(C)c(C)c2)cc1 | inconclusive: 1.47 µM [inhibitor, full curve, poor fit]
26 | O=C1NCCCC2c3c(cc(Br)c(O)c3Br)OC12N1CCOCC1 (configuration not stated) | inconclusive: 10.4 µM [inhibitor, single point]
27 | COc1cc2cc(C(c3nnnn3C3CCCC3)N3CCCCC3)c(=O)[nH]c2cc1OC (configuration not stated) | inactive
28 | Cc1ccc(-c2nnn(CC(=O)N3CCCCC3)n2)cc1 | inactive
29 | O=C(Nc1ccccc1Cl)OCc1cncs1 | inactive
30 | CC1(C)CC(=O)C=C(c2cccc(Br)c2)C1 | inconclusive: 3.7 µM [inhibitor, single point]
31 | COc1ccc(N2CCN(C(=O)c3ccc4c(c3)CCN4S(=O)(=O)c3ccccc3)CC2)cc1 | inactive
32 | O=C(N/N=C/c1ccoc1)c1cc(O)cc(O)c1 | inconclusive: 9.28 µM [inhibitor, partial curve, poor fit]
33 | CCN(c1ccccc1)S(=O)(=O)c1ccc(C(=O)NCC(c2cccs2)N(C)C)cc1 (configuration not stated) | inconclusive: 11.7 µM [inhibitor, single point]
34 | CCCc1nc2c(c(=O)c3ccccc3n2C)c(=O)n1C1CCCCCC1 | active: 14.7 µM
35 | COc1cc(C)c(/C=C(\C#N)C(=O)Nc2cccc(C)c2)cc1C(C)C | inactive
36 | CSCCC(NC(=O)c1ccc(Cl)cc1)C(=O)NC(C)(C)C (configuration not stated) | inactive
37 | COc1ccc(-c2[nH]ncc2CN(CCO)Cc2cccs2)c(F)c1 | inconclusive: 18.5 µM [inhibitor, single point]
38 | O=C(COC(=O)C1CCC1)NCCc1ccc(Cl)cc1Cl | inconclusive: 18.5 µM [inhibitor, single point]
39 | C[C@H](NC(=O)c1nc[nH]c1C(=O)N[C@@H](C)c1ccccc1)C(=O)OC(C)(C)C | inconclusive: 8.28 µM [inhibitor, partial curve, poor fit]
40 | CCOC(=O)c1ccc(Nc2ncccc2[N+](=O)[O-])cc1 | active: 0.586 µM
41 | COc1ccc(C(=O)COC(=O)c2ccc([N+](=O)[O-])s2)cc1OC | inconclusive: 13.1 µM [inhibitor, partial curve, poor fit]
42 | CC(CN1CCCC1)OC(=O)c1cccc(F)c1 (configuration not stated) | inconclusive: 9.28 µM [inhibitor, partial curve]
43 | CCOC(=O)CNC(=O)CSc1nnc(-c2ccco2)n1Cc1ccco1 | active: 8.28 µM
44 | CCOc1ccccc1NC(=O)Cn1c(=O)c2ccccc2n(CC)c1=O | inconclusive: 18.5 µM [inhibitor, single point]
45 | CCOc1ccc(N(CC(=O)Nc2c(C)n(C)n(-c3ccccc3)c2=O)S(=O)(=O)c2ccccc2)cc1 | inconclusive: 1.85 µM [inhibitor, full curve]
46 | CN1CCN(c2ccc(NC(=O)c3cc4ccccc4o3)cc2)CC1 | inactive
47 | O=C(Cc1ccccc1)c1c[nH]c(C(=O)NCCCn2ccnc2)c1 | inconclusive: 1.65 µM [inhibitor, single point]

Source: PubChem BioAssay AID504834 (National Center for Advancing Translational Sciences (NCATS), 2011)
